Here are results for two substances from PMC4701713, “DNA Entry into and Exit out of the Cohesin Ring by an Interlocking Gate Mechanism” (Cell, 2015).

The assay deals with T1, Psm3 with epitope tag, within the cohesin tetramer carrying TEV-cleavable Rad21 (fission yeast) (UniProt O42649).
T1 sequence: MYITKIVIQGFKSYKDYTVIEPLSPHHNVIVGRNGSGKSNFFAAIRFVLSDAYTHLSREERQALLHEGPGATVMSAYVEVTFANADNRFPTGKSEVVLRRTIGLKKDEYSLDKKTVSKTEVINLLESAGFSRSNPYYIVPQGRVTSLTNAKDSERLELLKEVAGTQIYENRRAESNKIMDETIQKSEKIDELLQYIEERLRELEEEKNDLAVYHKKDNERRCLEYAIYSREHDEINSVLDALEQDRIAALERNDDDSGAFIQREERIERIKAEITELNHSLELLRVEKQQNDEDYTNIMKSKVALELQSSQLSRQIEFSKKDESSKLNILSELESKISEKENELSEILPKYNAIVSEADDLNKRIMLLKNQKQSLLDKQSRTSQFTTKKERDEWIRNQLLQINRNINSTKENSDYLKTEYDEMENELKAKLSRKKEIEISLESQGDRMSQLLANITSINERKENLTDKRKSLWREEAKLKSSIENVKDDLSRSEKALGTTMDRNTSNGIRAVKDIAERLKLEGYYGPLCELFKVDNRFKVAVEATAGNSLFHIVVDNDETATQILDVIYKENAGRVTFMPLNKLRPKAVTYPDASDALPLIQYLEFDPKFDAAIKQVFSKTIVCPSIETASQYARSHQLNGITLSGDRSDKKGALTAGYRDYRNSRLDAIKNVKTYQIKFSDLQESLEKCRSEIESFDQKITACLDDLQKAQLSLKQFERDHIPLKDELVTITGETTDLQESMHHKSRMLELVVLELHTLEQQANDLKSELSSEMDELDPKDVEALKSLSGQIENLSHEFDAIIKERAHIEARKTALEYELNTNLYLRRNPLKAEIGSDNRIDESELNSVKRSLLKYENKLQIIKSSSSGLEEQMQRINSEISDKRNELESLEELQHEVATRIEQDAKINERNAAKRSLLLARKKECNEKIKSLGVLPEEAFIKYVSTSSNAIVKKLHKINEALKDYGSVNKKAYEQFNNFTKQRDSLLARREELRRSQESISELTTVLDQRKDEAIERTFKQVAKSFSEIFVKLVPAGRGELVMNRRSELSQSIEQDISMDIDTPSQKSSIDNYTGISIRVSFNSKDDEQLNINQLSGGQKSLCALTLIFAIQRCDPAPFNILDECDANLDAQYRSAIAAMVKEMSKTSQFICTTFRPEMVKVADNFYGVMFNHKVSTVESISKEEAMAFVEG
The assay is described as follows: co-IP; Rad21N dissociation: cohesin tetramer with TEV-cleavable Rad21 incubated with or without Pds5-Wapl or Mis4-Ssl3 and ATP, ADP or ATP-γ-S, Rad21 cut by TEV protease, cohesin immunoprecipitated via the epitope tag on Psm3; Rad21 fragments by western blotting; both purified. For orientation: In western blotting, separated proteins are transferred to a membrane and probed.

No constants are given. Whether binding was seen depends on the method and setting. In cells and extracts the contact can be indirect. Binding calls can cover weak binding; strength is not graded here. Tags and fused reporters may be left off the sequences shown.

In the case of “Rad21N, N-terminal TEV cleavage product of Rad21 (fission yeast) (domain or fragment)”, the binding result was “binds”.
The result for “Rad21C, C-terminal TEV cleavage product of Rad21 (fission yeast) (domain or fragment)” reads “binds”.
